Article PMC5312386
No constants are given. Whether binding was seen depends on the method and setting. Binding seen in cells or lysates may run through a third protein. Here binding means that the protein was enriched with, or labelled near, the bait; the list need not be complete.

Amino acid sequences for entries named in this document (tags omitted).
UniProt P04198: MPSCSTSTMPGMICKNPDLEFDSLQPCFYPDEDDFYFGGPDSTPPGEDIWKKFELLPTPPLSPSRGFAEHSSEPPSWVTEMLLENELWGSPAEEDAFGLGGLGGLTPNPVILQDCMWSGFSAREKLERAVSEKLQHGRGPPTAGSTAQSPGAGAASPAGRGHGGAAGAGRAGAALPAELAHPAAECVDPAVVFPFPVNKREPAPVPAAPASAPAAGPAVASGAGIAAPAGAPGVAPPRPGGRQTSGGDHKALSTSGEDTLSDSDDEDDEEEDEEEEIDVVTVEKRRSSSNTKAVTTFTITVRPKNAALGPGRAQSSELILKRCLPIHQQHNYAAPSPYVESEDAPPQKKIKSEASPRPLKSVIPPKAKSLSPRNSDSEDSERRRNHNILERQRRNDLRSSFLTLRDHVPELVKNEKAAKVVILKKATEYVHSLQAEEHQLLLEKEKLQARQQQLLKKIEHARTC
UniProt Q92769: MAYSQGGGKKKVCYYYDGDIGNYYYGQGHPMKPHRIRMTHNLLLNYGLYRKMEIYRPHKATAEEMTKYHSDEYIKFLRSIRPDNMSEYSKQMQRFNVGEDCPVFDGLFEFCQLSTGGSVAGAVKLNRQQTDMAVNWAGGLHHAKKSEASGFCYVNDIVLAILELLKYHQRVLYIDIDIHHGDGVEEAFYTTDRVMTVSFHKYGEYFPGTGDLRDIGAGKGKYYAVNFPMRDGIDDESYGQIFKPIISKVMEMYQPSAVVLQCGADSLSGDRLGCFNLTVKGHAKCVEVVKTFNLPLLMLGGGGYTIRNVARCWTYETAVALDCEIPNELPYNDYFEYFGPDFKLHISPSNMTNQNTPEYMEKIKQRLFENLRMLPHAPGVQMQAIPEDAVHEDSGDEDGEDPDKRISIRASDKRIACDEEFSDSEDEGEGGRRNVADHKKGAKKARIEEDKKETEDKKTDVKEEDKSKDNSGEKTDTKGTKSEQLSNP
UniProt P35222: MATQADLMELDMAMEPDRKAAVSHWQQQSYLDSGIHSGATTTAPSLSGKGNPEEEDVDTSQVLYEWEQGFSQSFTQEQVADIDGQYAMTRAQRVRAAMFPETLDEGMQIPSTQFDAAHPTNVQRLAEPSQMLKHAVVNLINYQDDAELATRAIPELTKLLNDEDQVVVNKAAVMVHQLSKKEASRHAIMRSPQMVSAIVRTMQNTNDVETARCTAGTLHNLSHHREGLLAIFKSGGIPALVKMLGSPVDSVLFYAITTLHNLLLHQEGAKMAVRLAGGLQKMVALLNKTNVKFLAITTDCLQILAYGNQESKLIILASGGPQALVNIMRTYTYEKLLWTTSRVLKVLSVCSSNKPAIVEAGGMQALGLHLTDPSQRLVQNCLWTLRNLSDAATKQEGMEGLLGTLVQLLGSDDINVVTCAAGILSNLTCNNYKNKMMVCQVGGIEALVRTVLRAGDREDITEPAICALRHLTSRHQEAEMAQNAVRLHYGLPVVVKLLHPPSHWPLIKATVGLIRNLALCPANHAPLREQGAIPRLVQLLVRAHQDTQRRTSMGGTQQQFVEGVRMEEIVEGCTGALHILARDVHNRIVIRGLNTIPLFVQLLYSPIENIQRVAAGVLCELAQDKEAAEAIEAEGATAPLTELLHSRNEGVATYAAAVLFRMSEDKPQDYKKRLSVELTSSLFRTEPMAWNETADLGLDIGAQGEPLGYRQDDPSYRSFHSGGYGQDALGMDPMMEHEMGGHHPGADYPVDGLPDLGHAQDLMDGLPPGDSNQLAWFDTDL

Molecular target: MYCN protein (overexpressed) (UniProt P04198)
Assay: affinity purification with mass spectrometry; MYCN immunoprecipitated from SY5Y-MYCN cells (un-induced, 4 h, 24 h and 48 h MYCN induction) with Protein A/G PLUS-agarose beads conjugated to MYCN antibody or IgG; three biological and two technical replicates per condition

| binding | Substance |
| --- | --- |
| binds | HDAC2 (from UniProt Q92769 1-488) |
| binds | β-catenin (CTNNB1) (from UniProt P35222 1-781) |
